Measured values reported in publication PMC8790872.
No constants are given. Whether binding was seen depends on the method and setting. In cells and extracts the contact can be indirect. Some entries that bind do so weakly or less than the wild type.

Target: T1, Nuclear factor of activated T cell 1 (NFAT1) (human (in 786-O and ACHN cells)) (UniProt Q13469)
T1 sequence: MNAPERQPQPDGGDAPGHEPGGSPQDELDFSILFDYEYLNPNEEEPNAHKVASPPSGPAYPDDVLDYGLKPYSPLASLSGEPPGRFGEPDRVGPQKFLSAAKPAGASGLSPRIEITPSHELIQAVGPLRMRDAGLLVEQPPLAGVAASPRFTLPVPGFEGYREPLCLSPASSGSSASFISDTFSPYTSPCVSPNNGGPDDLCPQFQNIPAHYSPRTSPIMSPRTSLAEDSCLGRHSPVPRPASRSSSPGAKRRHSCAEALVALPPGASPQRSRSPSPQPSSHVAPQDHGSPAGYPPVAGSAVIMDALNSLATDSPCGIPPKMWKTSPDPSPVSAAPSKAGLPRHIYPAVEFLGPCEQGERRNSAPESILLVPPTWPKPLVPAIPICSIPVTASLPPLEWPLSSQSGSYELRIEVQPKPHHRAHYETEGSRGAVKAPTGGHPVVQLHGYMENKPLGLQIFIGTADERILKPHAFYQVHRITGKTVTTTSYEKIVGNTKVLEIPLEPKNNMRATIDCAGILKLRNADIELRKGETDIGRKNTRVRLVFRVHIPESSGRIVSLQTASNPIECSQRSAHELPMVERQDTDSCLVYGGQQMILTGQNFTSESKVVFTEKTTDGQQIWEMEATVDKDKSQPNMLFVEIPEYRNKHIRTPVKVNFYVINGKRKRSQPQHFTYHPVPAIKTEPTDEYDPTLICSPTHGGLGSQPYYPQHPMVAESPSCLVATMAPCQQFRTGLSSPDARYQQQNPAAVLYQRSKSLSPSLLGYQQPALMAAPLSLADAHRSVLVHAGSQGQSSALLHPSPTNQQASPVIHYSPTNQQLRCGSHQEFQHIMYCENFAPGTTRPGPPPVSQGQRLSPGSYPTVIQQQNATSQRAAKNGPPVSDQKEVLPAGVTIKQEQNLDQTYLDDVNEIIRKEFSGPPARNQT
Test: co-IP; lysates of renal cancer cells (786-O, ACHN); antibodies listed for IP: NFAT1 1:50, GSK-3β 1:50, Myc tag 1:50; detailed methods in the supplementary information

F-box and WD repeat domain containing 7 (FBW7) (from UniProt Q969H0-1 1-707)
binding: binds
